2 substances from publication PMC2684528 can be followed below.

Chains of the proteins cited; added tags and fusions are not shown.
UniProt P49023: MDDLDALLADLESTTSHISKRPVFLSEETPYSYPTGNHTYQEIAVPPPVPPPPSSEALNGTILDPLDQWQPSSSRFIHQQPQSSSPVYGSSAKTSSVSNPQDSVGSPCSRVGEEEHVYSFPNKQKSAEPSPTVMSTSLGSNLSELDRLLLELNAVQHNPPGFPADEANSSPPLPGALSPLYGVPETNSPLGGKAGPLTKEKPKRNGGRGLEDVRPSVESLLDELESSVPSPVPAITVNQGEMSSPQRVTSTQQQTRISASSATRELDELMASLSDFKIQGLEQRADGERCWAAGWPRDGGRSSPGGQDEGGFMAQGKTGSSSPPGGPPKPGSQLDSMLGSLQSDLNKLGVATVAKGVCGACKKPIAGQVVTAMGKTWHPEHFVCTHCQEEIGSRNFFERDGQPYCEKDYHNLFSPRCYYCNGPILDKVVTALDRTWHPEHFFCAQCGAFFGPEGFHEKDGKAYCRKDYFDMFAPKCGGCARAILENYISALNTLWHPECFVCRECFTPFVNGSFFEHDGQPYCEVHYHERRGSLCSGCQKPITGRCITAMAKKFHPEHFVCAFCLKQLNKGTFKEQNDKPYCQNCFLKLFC

These are yes or no findings as the source states them, for the method shown. Binding seen in cells or lysates may run through a third protein. For part of these data: A result given as binding can be weak or reduced; the word gives no strength. For part of these data: Tags and fused reporters may be left off the sequences shown.

The target in experiment [1] is T1, FLAG-Nudel (human) (UniProt Q9GZM8).
T1 sequence: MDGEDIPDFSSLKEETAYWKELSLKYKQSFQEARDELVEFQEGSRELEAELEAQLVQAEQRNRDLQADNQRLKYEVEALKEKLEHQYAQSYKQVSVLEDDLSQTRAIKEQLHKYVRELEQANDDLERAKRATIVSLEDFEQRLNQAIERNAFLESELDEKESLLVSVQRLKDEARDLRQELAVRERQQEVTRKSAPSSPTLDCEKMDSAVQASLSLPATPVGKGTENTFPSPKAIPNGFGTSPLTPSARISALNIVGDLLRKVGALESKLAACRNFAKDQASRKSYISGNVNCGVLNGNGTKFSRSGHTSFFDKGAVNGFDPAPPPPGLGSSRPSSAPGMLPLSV
The experiment can be described thus: co-IP; exogenous proteins expressed separately in HEK293T cells; cell lysates premixed for 2 h, then co-IP with anti-FLAG resin.

Experiment [2] has as its target FLAG-Nudel^C36 (human) (UniProt Q9GZM8). The experiment can be described thus: co-IP; lysates of HEK293T cells coexpressing GFP-paxillin and a FLAG fusion protein; anti-FLAG M2 agarose beads 2 h at 4 °C in co-IP buffer (20 mM Tris-HCl pH 7.5, 100 mM KCl, 0.1% NP-40, 1 mM EDTA, 10% glycerol, 1 mM DTT, phosphatase and protease inhibitors); eluted with FLAG peptide; Ponceau S staining and immunoblotting.

Experiment [3] has as its target FLAG-Nudel^N20 (human) (UniProt Q9GZM8). The description is as above.

As for “dynein intermediate chain (DIC) (human (endogenous in HEK293T))”, in experiment [1], the binding entry was “binds”.

Take “GFP-paxillin (from UniProt P49023 1-591)”: the binding result in experiment [2] is given as “no binding”; in experiment [3], “binds”.
